Earlier results in patent publication US20100048608A1, “Histone Deacetylase Inhibitors for the Treatment of Ocular Neovascular or Edematous Disorders and Diseases” (ALCON, INC., priority 2002, published 2010).

Test system: VEGF-induced neovascularization
Conditions: Deroanne et al. 2002

## O=C(CCCCCCC(=O)Nc1ccccc1)NO [SAHA, suberoylanilide hydroxamic acid]
  inhibition of VEGF-induced neovascularization: can inhibit VEGF-induced neovascularization
